PubChem BioAssay AID1159584 | Peter MacCallum Cancer Centre, 2016
In all, the deposit lists about 18,000 reagents; shown is an unselected part. Not given: the amount of reagent, the time to read-out.

Purpose: 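Genes whose loss is lethal only together with E-cadherin loss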 (primary screen)
System: human MCF10A breast epithelial cells, parental and CDH1-null
Reagent: siRNA against human genes
Measurement: 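Cell viability by CellTiter-Glo ATP luminescence, each line scaled to the mean of mock wells across plates, then CDH1-null over parental ratio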
Scale: CDH1-null / parental viability ratio: higher = CDH1-null cells survive relatively better than parental; CDH1-null viability vs mock: higher = more viable CDH1-null cells; parental viability vs mock: higher = more viable parental cells

gene knocked down,CDH1-null / parental viability ratio,CDH1-null viability vs mock (fraction of mock),parental viability vs mock (fraction of mock)
TENT5B,1.04,0.52,0.5
TECR,1.1,0.99,0.9
CAVIN2,0.8,0.74,0.92
FAM107A,0.73,0.51,0.7
CEP350,0.88,0.91,1.04
TIMMDC1,1.22,0.96,0.79
GGCT,1.18,0.93,0.79
PRB3,1.04,0.76,0.73
PAX8,0.96,0.79,0.82
CLN8,0.98,0.56,0.57
MLF1,0.67,0.56,0.84
NLRP4,0.91,0.73,0.8
ATAD3B,1.06,0.74,0.7
CDC42EP3,1.22,0.84,0.69
SF3B2,1.45,0.29,0.2
DLL3,1.16,0.78,0.67
TCN1,1.32,0.7,0.53
ITPR2,1.3,0.96,0.74
CRACR2A,1.04,0.47,0.45
SEC31B,0.98,0.84,0.86
TBC1D3B,1,0.62,0.62
SCAF8,1.03,0.62,0.6
THAP1,1.12,0.76,0.68
ASPDH,1.03,0.78,0.76
SPDYA,0.98,0.65,0.66
RAB23,0.88,0.92,1.05
PIGP,0.89,0.8,0.9
PHAF1,1.03,0.99,0.96
NPFF,1.22,1,0.82
SHMT2,1.09,0.87,0.8
ZMYND11,1,0.96,0.96

Laid out differently: results already given.
| gene knocked down | CDH1-null / parental viability ratio | CDH1-null viability vs mock (fraction of mock) | parental viability vs mock (fraction of mock) |
| --- | --- | --- | --- |
| PAX8 | 0.96 | 0.79 | 0.82 |
| CLN8 | 0.98 | 0.56 | 0.57 |
| MLF1 | 0.67 | 0.56 | 0.84 |
| NLRP4 | 0.91 | 0.73 | 0.8 |
| ATAD3B | 1.06 | 0.74 | 0.7 |
| CDC42EP3 | 1.22 | 0.84 | 0.69 |

The list goes on.
gene knocked down,CDH1-null / parental viability ratio,CDH1-null viability vs mock (fraction of mock),parental viability vs mock (fraction of mock)
TRH,1.26,1.06,0.84
CAMP,1.22,0.88,0.72
CIROZ,1.05,0.65,0.62
GFM1,1.02,0.94,0.92
IPO11,0.95,0.36,0.38
CPNE9,1,1,1
DRAM2,0.98,0.44,0.45
RPS12,1.19,0.38,0.32
LDLRAD3,0.81,0.5,0.62
HLA-DRB3,0.9,0.57,0.63
SRSF11,1.4,0.77,0.55
SNRPD1,2,0.44,0.22
CBFB,1.06,1,0.94
COA5,0.73,0.66,0.9
RBM14,1.25,0.3,0.24
CNOT7,1.1,0.89,0.81
KLF1,0.94,0.58,0.62
OR52N5,1.03,0.72,0.7
HAUS6,1.06,0.76,0.72
IK,1.17,0.21,0.18
VWF,1.09,0.87,0.8
SMAD7,1.14,0.92,0.81
PER3,0.98,0.92,0.94
SLC1A6,0.86,0.62,0.72
ERCC6L,0.82,0.77,0.94
GCM2,1.23,1.08,0.88
TUFM,1,0.9,0.9
NMNAT2,1.06,0.94,0.89
S100A1,1.32,0.62,0.47
C19orf18,0.84,0.64,0.76
SAYSD1,1.09,0.5,0.46
CSPP1,0.82,0.72,0.88
SPATC1,1.13,1.04,0.92
TACSTD2,0.89,0.7,0.79
GSTM3,0.98,0.96,0.98
OR2W3,1.05,0.69,0.66
WWOX,1.01,0.77,0.76
